Data as given in PubChem BioAssay AID1224826 (NIAID, 2016).
The deposit covers about 17,000 reagents; below is an unselected part. In the full data, about 1,110 (6.6%) were called active. 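Active means lowered or raised reporter signal; replicate intensities are raw and not normalised per plate.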 Reagent sequences are not shown.

Test: 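Knock-downs that raise or lower Tnf reporter signal after endotoxin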 (primary screen)
System: RAW264.7 G9 macrophages from mouse bearing reporters for p65 (GFP) and the Tnf promoter (mCherry)
Knock-down reagent: siRNA pool against mouse genes, 100 nM
Time to read-out: 16 h of LPS stimulation, after 2 days of siRNA transfection
Challenge: bacterial lipopolysaccharide (Salmonella minnesota R595), 10 ng/ml
Detection: 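Nuclear mCherry signal of the Tnf promoter reporter measured by imaging after background removal, scaled to each plate median and turned into robust z-scores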
Direction: Tnf reporter robust z-score: higher = stronger Tnf promoter reporter signal after LPS; Tnf reporter intensity: higher = stronger Tnf promoter reporter signal
Call rule: 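a well counts as active at a score of -1.3 or below (Tlr4 knock-down control median) or above 3 (raised signal); controls and wells holding fewer than 50 cells are excluded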
Calls: active = Tnf reporter clearly lowered or raised; inactive = no clear change in Tnf reporter

no.	Gene	Tnf reporter robust z-score	fewer than 50 cells in well	Tnf reporter intensity, replicate 1	Tnf reporter intensity, replicate 2	call
1	Hcls1 (GeneID 15163)	-0.05	enough cells in well	209	183	inactive
2	Ak3 (GeneID 56248)	-0.13	enough cells in well	259	149	inactive
3	Prdm2 (GeneID 110593)		fewer than 50 cells per well; well left out of calls	84.2	103	inactive
4	Itpkc (GeneID 233011)	-0.73	enough cells in well	121	122	inactive
5	Kir3dl2 (GeneID 245615)	-0.71	enough cells in well	189	110	inactive
6	Crybb2 (GeneID 12961)	-0.87	enough cells in well	154	156	inactive
7	Arhgap31 (GeneID 12549)	1	enough cells in well	257	185	inactive
8	Stat6 (GeneID 20852)	0.5	enough cells in well	331	247	inactive
9	Mrgprd (GeneID 211578)	1.45	enough cells in well	327	154	inactive
10	Suds3 (GeneID 71954)		fewer than 50 cells per well; well left out of calls	181	60.5	inactive

A portion taken from the entries so far, for reference:
no.	Gene	Tnf reporter robust z-score	fewer than 50 cells in well	Tnf reporter intensity, replicate 1	Tnf reporter intensity, replicate 2	call
1	Hcls1 (GeneID 15163)	-0.05	enough cells in well	209	183	inactive
2	Ak3 (GeneID 56248)	-0.13	enough cells in well	259	149	inactive
3	Prdm2 (GeneID 110593)		fewer than 50 cells per well; well left out of calls	84.2	103	inactive

Further entries follow:
no.	Gene	Tnf reporter robust z-score	fewer than 50 cells in well	Tnf reporter intensity, replicate 1	Tnf reporter intensity, replicate 2	call
11	Or5l13 (GeneID 258814)	0.43	enough cells in well	208	178	inactive
12	Brs3 (GeneID 12209)	-1.08	enough cells in well	122	212	inactive
13	Dnajc11 (GeneID 230935)	0.29	enough cells in well	224	114	inactive
14	Mapk3 (GeneID 26417)	-0.72	enough cells in well	136	134	inactive
15	Or1e19 (GeneID 259026)	-0.4	enough cells in well	154	106	inactive
16	Chrm3 (GeneID 12671)	-0.1	enough cells in well	196	307	inactive
17	Picalm (GeneID 233489)	1.15	enough cells in well	335	272	inactive
18	Nmnat3 (GeneID 74080)		fewer than 50 cells per well; well left out of calls	249	61.5	inactive
19	Spata6 (GeneID 67946)	1.35	enough cells in well	172	120	inactive
20	Fbxl12 (GeneID 30843)	-1.15	enough cells in well	159	121	inactive
21	Pdcd6 (GeneID 18570)	0.32	enough cells in well	248	217	inactive
22	Nek4 (GeneID 23955)	-0.83	enough cells in well	121	135	inactive
23	Ccdc202 (GeneID 66732)	0.38	enough cells in well	167	75.6	inactive
24	Rps6kb1 (GeneID 72508)	-1.7	enough cells in well	60.1	48.7	active
